Screening data

Data taken from PubChem BioAssay AID1159506, deposited by NCATS (2015).

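Genome-wide siRNA knockdown in TC32 Ewing sarcoma cells, comparing luciferase light from an NR0B1-promoter reporter with a CMV-promoter reporter 48 hours after transfection. Each siRNA was applied at 20 nM. A z-score of the log NR0B1-over-CMV signal, less the median of siRNAs with the same seed; more negative means a stronger specific loss of the NR0B1 reporter.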

This is part of the screen; most of the strongest results are not listed here. Sequences are the guide (antisense) strand, without overhang.

- UUACCUUCUUUAUUUAAGG against RPS6 : seed-corrected z-score 1.46
- AGAAUUUCGAGAGUUUGCG against TPRN : seed-corrected z-score -1.39
- AAACGGAGUGGUAAUAUGC against RFX6 : seed-corrected z-score -0.8916
- UUCUUGAUGACUAGAUCCG against SPTBN2 : seed-corrected z-score 0.2583
- UUUCGUAGCACUUCGUCGC against ITGA2 : seed-corrected z-score 0.3762
- UUCCAGACAUUGAUGCUGC against SLC6A8 : seed-corrected z-score -0.9691
- UUACAGUCAAACUAUACUC against PCDH18 : seed-corrected z-score 1.357
- UUUGCCCUAAGCACUCACU against ADRB3 : seed-corrected z-score -1.303
- UCCUCGAUAUCGUCUCUCC against PBRM1 : seed-corrected z-score -0.05656
- UCACAGCUCAAGUACACCU against IGFBP7 : seed-corrected z-score -1.834
- UUUGUCCGAACCGCAAAUG against CACNB2 : seed-corrected z-score -0.497
- UGAUGGAACCACGACAACC against HSD17B8 : seed-corrected z-score -0.1156
- UUACAUCAUUCUACAGUGG against BAGE : seed-corrected z-score 0.8992
- UUCUGCAUGAUCAACCGGG against SLC25A43 : seed-corrected z-score -0.2986
- UAAGACUCUUCAUUCAGCG against YWHAB : seed-corrected z-score -0.007398
- ACAGGUACUGGAGGGAAGU against SPSB3 : seed-corrected z-score 0.0988
- AAAAGAAUCCCGUUGCUGU against CLN8 : seed-corrected z-score 1.23
- UUUAUUGGCAGAGUCCAGG against C1QTNF4 : seed-corrected z-score 2.35
- AGUUGUAGCAGCUUUAAUG against STRC : seed-corrected z-score -0.582
- AUAGGAACUCCUUCAAUUG against AHSA2 : seed-corrected z-score 0.5754
- UCAUUGUCAACUGCGUUGU against PRADC1 : seed-corrected z-score -0.5707
- UAAUAAAACUGGACUAUGC against MTA2 : seed-corrected z-score -0.03437
- UAUCUGCUCAGCAAAGGCC against ADCK5 : seed-corrected z-score -1.259
- UCAAUAUUAAGCCUUUCUG against LINC00614 : seed-corrected z-score 0.08092
- UUUGCAUUCGUAGUCUUUC against ZNF331 : seed-corrected z-score -0.3217
- UGAAAGAUCUGGGACGCGG against TRH : seed-corrected z-score -1.257
- UGCAGGUAGUGGUACAUGG against P3H4 : seed-corrected z-score 0.6993
- UAAGUUUAAGAUGUCAUCC against IKBKB : seed-corrected z-score 0.2799
- UCUGCUCUGACCAAAGGUC against ZNF506 : seed-corrected z-score 0.01663
- UUGUCUACCAUGAUGAGCG against EMC8 : seed-corrected z-score 0.8713
- UGUACUAGAAAUAUCUACC against BIRC6 : seed-corrected z-score 0.5062
- AAUGUGCUUCAACUCUUCC against CALN1 : seed-corrected z-score 1.282
- UUUAGUAGUUCUGACAUGU against RPL13 : seed-corrected z-score 0.06322
- UUAACUCUAUGAUUUCAGG against KCNMA1 : seed-corrected z-score -0.2394
- UUCUCUUGUUGUGAAGUCU against TIMM9 : seed-corrected z-score -0.6207
- AUAGGAAUUGCAUAGGCCG against SLC38A4 : seed-corrected z-score -0.08529
- UGGUUGUGAAGUUACAUUC against ZHX2 : seed-corrected z-score -0.1235
- AAAGAGUUCACCGAUUUUC against RMND1 : seed-corrected z-score 0.8699
- UUCUCGUUCCCGAAAGUCC against PFKM : seed-corrected z-score -0.04915
- UUGGAGAUCCUGUAGAAGG against ADRA1A : seed-corrected z-score -0.1111
- UGAGUCAAGACUUCCCAUC against HCG2040054 : seed-corrected z-score 0.5218
- UAGAGAUCUUCGUACUUGC against CRISP3 : seed-corrected z-score -0.505
- UUACAAUAAACUAAAUACG against HHIP-AS1 : seed-corrected z-score 1.337
- UGGGUUCUGAGUGAAGUUG against MARCO : seed-corrected z-score 0.07694
- UUACUUUGCUCUUCUUACU against MDFIC : seed-corrected z-score -0.4993
- UUCGUGAUAGAGGCAGGCA against PSAPL1 : seed-corrected z-score 0.7324
- AAGGAUAGCACAGAGGAUG against OR2A7 : seed-corrected z-score 0.9938
- UACCAAAACCCGUAUGUCC against FITM2 : seed-corrected z-score 0.9994
- AGACCUUCAACAAACUUCC against MDH1 : seed-corrected z-score -0.2695
- AAUGGAAUGAGAGGAAAUG against LCE2B : seed-corrected z-score 1.082
- AUCCUUAUUAAUGACCUUG against CST5 : seed-corrected z-score 0.009491

Some entries from above, unchanged:

Sequence,target gene,seed-corrected z-score
UCAUUGUCAACUGCGUUGU,PRADC1,-0.5707
UCACAGCUCAAGUACACCU,IGFBP7,-1.834
UUUGCCCUAAGCACUCACU,ADRB3,-1.303
UUUAGUAGUUCUGACAUGU,RPL13,0.06322
UCCUCGAUAUCGUCUCUCC,PBRM1,-0.05656